Reference: publication PMC7956269
These are yes or no findings as the source states them, for the method shown. Binding seen in cells or lysates may run through a third protein. These calls come from enrichment with a bait or labelling near it, and not all partners need be listed.

B1: Adnp (protein, UniProt Q9H2P0 1-1102)
chain: MFQLPVNNLGSLRKARKTVKKILSDIGLEYCKEHIEDFKQFEPNDFYLKNTTWEDVGLWDPSLTKNQDYRTKPFCCSACPFSSKFFSAYKSHFRNVHSEDFENRILLNCPYCTFNADKKTLETHIKIFHAPNASAPSSSLSTFKDKNKNDGLKPKQADSVEQAVYYCKKCTYRDPLYEIVRKHIYREHFQHVAAPYIAKAGEKSLNGAVPLGSNAREESSIHCKRCLFMPKSYEALVQHVIEDHERIGYQVTAMIGHTNVVVPRSKPLMLIAPKPQDKKSMGLPPRIGSLASGNVRSLPSQQMVNRLSIPKPNLNSTGVNMMSSVHLQQNNYGVKSVGQGYSVGQSMRLGLGGNAPVSIPQQSQSVKQLLPSGNGRSYGLGSEQRSQAPARYSLQSANASSLSSGQLKSPSLSQSQASRVLGQSSSKPAAAATGPPPGNTSSTQKWKICTICNELFPENVYSVHFEKEHKAEKVPAVANYIMKIHNFTSKCLYCNRYLPTDTLLNHMLIHGLSCPYCRSTFNDVEKMAAHMRMVHIDEEMGPKTDSTLSFDLTLQQGSHTNIHLLVTTYNLRDAPAESVAYHAQNNPPVPPKPQPKVQEKADIPVKSSPQAAVPYKKDVGKTLCPLCFSILKGPISDALAHHLRERHQVIQTVHPVEKKLTYKCIHCLGVYTSNMTASTITLHLVHCRGVGKTQNGQDKTNAPSRLNQSPSLAPVKRTYEQMEFPLLKKRKLDDDSDSPSFFEEKPEEPVVLALDPKGHEDDSYEARKSFLTKYFNKQPYPTRREIEKLAASLWLWKSDIASHFSNKRKKCVRDCEKYKPGVLLGFNMKELNKVKHEMDFDAEWLFENHDEKDSRVNASKTADKKLNLGKEDDSSSDSFENLEEESNESGSPFDPVFEVEPKISNDNPEEHVLKVIPEDASESEEKLDQKEDGSKYETIHLTEEPTKLMHNASDSEVDQDDVVEWKDGASPSESGPGSQQVSDFEDNTCEMKPGTWSDESSQSEDARSSKPAAKKKATMQGDREQLKWKNSSYGKVEGFWSKDQSQWKNASENDERLSNPQIEWQNSTIDSEDGEQFDNMTDGVAEPMHGSLAGVKLSSQQA
B2: Nt5dc2 (protein, UniProt Q9H857 1-520)
chain: MRVESGSAQERGILLESLSTLLEKTTASHEGRAPGNRELTDLLPPEVCSLLNPAAIYANNEISLRDVEVYGFDYDYTLAQYADALHPEIFSTARDILIEHYKYPEGIRKYDYNPSFAIRGLHYDIQKSLLMKIDAFHYVQLGTAYRGLQPVPDEEVIELYGGTQHIPLYQMSGFYGKGPSIKQFMDIFSLPEMALLSCVVDYFLGHSLEFDQAHLYKDVTDAIRDVHVKGLMYQWIEQDMEKYILRGDETFAVLSRLVAHGKQLFLITNSPFSFVDKGMRHMVGPDWRQLFDVVIVQADKPSFFTDRRKPFRKLDEKGSLQWDRITRLEKGKIYRQGNLFDFLRLTEWRGPRVLYFGDHLYSDLADLMLRHGWRTGAIIPELEREIRIINTEQYMHSLTWQQALTGLLERMQTYQDAESRQVLAAWMKERQELRCITKALFNAQFGSIFRTFHNPTYFSRRLVRFSDLYMASLSCLLNYRVDFTFYPRRTPLQHEAPLWMDQLCTGCMKTPFLGDMAHIR
B3: Ttf1 (protein, UniProt Q15361 1-905)
chain: MEGESSRFEIHTPVSDKKKKKCSIHKERPQKHSHEIFRDSSLVNEQSQITRRKKRKKDFQHLISSPLKKSRICDETANATSTLKKRKKRRYSALEVDEEAGVTVVLVDKENINNTPKHFRKDVDVVCVDMSIEQKLPRKPKTDKFQVLAKSHAHKSEALHSKVREKKNKKHQRKAASWESQRARDTLPQSESHQEESWLSVGPGGEITELPASAHKNKSKKKKKKSSNREYETLAMPEGSQAGREAGTDMQESQPTVGLDDETPQLLGPTHKKKSKKKKKKKSNHQEFEALAMPEGSQVGSEVGADMQESRPAVGLHGETAGIPAPAYKNKSKKKKKKSNHQEFEAVAMPESLESAYPEGSQVGSEVGTVEGSTALKGFKESNSTKKKSKKRKLTSVKRARVSGDDFSVPSKNSESTLFDSVEGDGAMMEEGVKSRPRQKKTQACLASKHVQEAPRLEPANEEHNVETAEDSEIRYLSADSGDADDSDADLGSAVKQLQEFIPNIKDRATSTIKRMYRDDLERFKEFKAQGVAIKFGKFSVKENKQLEKNVEDFLALTGIESADKLLYTDRYPEEKSVITNLKRRYSFRLHIGRNIARPWKLIYYRAKKMFDVNNYKGRYSEGDTEKLKMYHSLLGNDWKTIGEMVARSSLSVALKFSQISSQRNRGAWSKSETRKLIKAVEEVILKKMSPQELKEVDSKLQENPESCLSIVREKLYKGISWVEVEAKVQTRNWMQCKSKWTEILTKRMTNGRRIYYGMNALRAKVSLIERLYEINVEDTNEIDWEDLASAIGDVPPSYVQTKFSRLKAVYVPFWQKKTFPEIIDYLYETTLPLLKEKLEKMMEKKGTKIQTPAAPKQVFPFRDIFYYEDDSEGEDIEKESEGQAPCMAHACNSSTLGGQGRWII
B4: Rbm14 (protein, UniProt Q96PK6 1-669)
chain: MKIFVGNVDGADTTPEELAALFAPYGTVMSCAVMKQFAFVHMRENAGALRAIEALHGHELRPGRALVVEMSRPRPLNTWKIFVGNVSAACTSQELRSLFERRGRVIECDVVKDYAFVHMEKEADAKAAIAQLNGKEVKGKRINVELSTKGQKKGPGLAVQSGDKTKKPGAGDTAFPGTGGFSATFDYQQAFGNSTGGFDGQARQPTPPFFGRDRSPLRRSPPRASYVAPLTAQPATYRAQPSVSLGAAYRAQPSASLGVGYRTQPMTAQAASYRAQPSVSLGAPYRGQLASPSSQSAAASSLGPYGGAQPSASALSSYGGQAAAASSLNSYGAQGSSLASYGNQPSSYGAQAASSYGVRAAASSYNTQGAASSLGSYGAQAASYGAQSAASSLAYGAQAASYNAQPSASYNAQSAPYAAQQAASYSSQPAAYVAQPATAAAYASQPAAYAAQATTPMAGSYGAQPVVQTQLNSYGAQASMGLSGSYGAQSAAAATGSYGAAAAYGAQPSATLAAPYRTQSSASLAASYAAQQHPQAAASYRGQPGNAYDGAGQPSAAYLSMSQGAVANANSTPPPYERTRLSPPRASYDDPYKKAVAMSKRYGSDRRLAELSDYRRLSESQLSFRRSPTKSSLDYRRLPDAHSDYARYSGSYNDYLRAAQMHSGYQRRM
B5: Esyt2 (protein, UniProt A0FGR8 1-921)
chain: MTANRDAALSSHRHPGCAQRPRTPTFASSSQRRSAFGFDDGNFPGLGERSHAPGSRLGARRRAKTARGLRGHRQRGAGAGLSRPGSARAPSPPRPGGPENPGGVLSVELPGLLAQLARSFALLLPVYALGYLGLSFSWVLLALALLAWCRRSRGLKALRLCRALALLEDEERVVRLGVRACDLPAWVHFPDTERAEWLNKTVKHMWPFICQFIEKLFRETIEPAVRGANTHLSTFSFTKVDVGQQPLRINGVKVYTENVDKRQIILDLQISFVGNCEIDLEIKRYFCRAGVKSIQIHGTMRVILEPLIGDMPLVGALSIFFLRKPLLEINWTGLTNLLDVPGLNGLSDTIILDIISNYLVLPNRITVPLVSEVQIAQLRFPVPKGVLRIHFIEAQDLQGKDTYLKGLVKGKSDPYGIIRVGNQIFQSRVIKENLSPKWNEVYEALVYEHPGQELEIELFDEDPDKDDFLGSLMIDLIEVEKERLLDEWFTLDEVPKGKLHLRLEWLTLMPNASNLDKVLTDIKADKDQANDGLSSALLILYLDSARNLPSGKKISSNPNPVVQMSVGHKAQESKIRYKTNEPVWEENFTFFIHNPKRQDLEVEVRDEQHQCSLGNLKVPLSQLLTSEDMTVSQRFQLSNSGPNSTIKMKIALRVLHLEKRERPPDHQHSAQVKRPSVSKEGRKTSIKSHMSGSPGPGGSNTAPSTPVIGGSDKPGMEEKAQPPEAGPQGLHDLGRSSSSLLASPGHISVKEPTPSIASDISLPIATQELRQRLRQLENGTTLGQSPLGQIQLTIRHSSQRNKLIVVVHACRNLIAFSEDGSDPYVRMYLLPDKRRSGRRKTHVSKKTLNPVFDQSFDFSVSLPEVQRRTLDVAVKNSGGFLSKDKGLLGKVLVALASEELAKGWTQWYDLTEDGTRPQAMT
B6: Nol9 (protein, UniProt Q5SY16 1-702)
chain: MADSGLLLKRGSCRSTWLRVRKARPQLILSRRPRRRLGSLRWCGRRRLRWRLLQAQASGVDWREGARQVSRAAAARRPNTATPSPIPSPTPASEPESEPELESASSCHRPLLIPPVRPVGPGRALLLLPVEQGFTFSGICRVTCLYGQVQVFGFTISQGQPAQDIFSVYTHSCLSIHALHYSQPEKSKKELKREARNLLKSHLNLDDRRWSMQNFSPQCSIVLLEHLKTATVNFITSYPGSSYIFVQESPTPQIKPEYLALRSVGIRREKKRKGLQLTESTLSALEELVNVSCEEVDGCPVILVCGSQDVGKSTFNRYLINHLLNSLPCVDYLECDLGQTEFTPPGCISLLNITEPVLGPPFTHLRTPQKMVYYGKPSCKNNYENYIDIVKYVFSAYKRESPLIVNTMGWVSDQGLLLLIDLIRLLSPSHVVQFRSDHSKYMPDLTPQYVDDMDGLYTKSKTKMRNRRFRLAAFADALEFADEEKESPVEFTGHKLIGVYTDFAFRITPRNRESHNKILRDLSILSYLSQLQPPMPKPLSPLHSLTPYQVPFNAVALRITHSDVAPTHILYAVNASWVGLCKIQDDVRGYTNGPILLAQTPICDCLGFGICRGIDMEKRLYHILTPVPPEELRTVNCLLVGAIAIPHCVLKCQRGIEGTVPYVTTDYNFKLPGASEKIGAREPEEAHKEKPYRRPKFCRKMK

target: Biotin-FOXC1 (mouse) (UniProt Q61572); test: affinity purification with mass spectrometry; streptavidin-agarose precipitation of biotinylated FOXC1 from nuclear extract of stable HEK293T cells (293T-Biotin-FOXC1); IP350 buffer (350 mM NaCl, 20 mM Tris-HCl pH 7.5, 0.5% NP40, 1 mM EDTA, 10% glycerin); SDS-PAGE, LC-ESI-MS/MS; proteins of the 293T-Biotin control deducted

| Binder | binding |
| --- | --- |
| B1 | binds |
| B2 | binds |
| B3 | binds |
| B4 | binds |
| B5 | binds |
| B6 | binds |
